{"source": "paper PMC8414670", "key": {"[1]": {"biological_target": "RibH-mV (DMRL synthase RibH with C-terminal mVenus) (Bacillus subtilis) (UniProt P11998)", "assay": "single particle tracking (jump distance analysis of diffusive populations); live B. subtilis PY79 cells in exponential growth (S7_50 minimal medium, grown at 30 °C); mVenus fusion expressed from the original gene locus; populations compared with ribH or ribE deletion strains and with calculated diffusion coefficients; 13.76 ms interval"}, "[2]": {"biological_target": "T1, RibH (dimethylribityl-lumazine synthase, native) (Bacillus subtilis (endogenous in PY79)) (UniProt P11998)", "T1 sequence": "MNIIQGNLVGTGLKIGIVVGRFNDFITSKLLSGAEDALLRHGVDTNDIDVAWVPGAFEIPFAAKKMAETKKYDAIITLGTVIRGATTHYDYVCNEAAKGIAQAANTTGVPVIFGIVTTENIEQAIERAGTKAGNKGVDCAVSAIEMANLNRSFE", "assay": "condition: only ribE-mV expressed from amyE and ribE deleted from the original locus; single particle tracking (jump distance analysis of diffusive populations); live B. subtilis PY79 cells; ribE-mV expressed from the ectopic amyE locus, ribE deleted from the original locus, RibH present"}}, "note": "Results are given in words; binding and its absence hold for the method and conditions named. Some binding calls cover weakened binding; strength is not graded here.", "data": [{"binder": "RibH-mV (DMRL synthase RibH with C-terminal mVenus) (enzyme, UniProt P11998 1-154) MNIIQGNLVGTGLKIGIVVGRFNDFITSKLLSGAEDALLRHGVDTNDIDVAWVPGAFEIPFAAKKMAETKKYDAIITLGTVIRGATTHYDYVCNEAAKGIAQAANTTGVPVIFGIVTTENIEQAIERAGTKAGNKGVDCAVSAIEMANLNRSFE", "values": [{"measurement": "binding", "setting": "[1]", "result": "binds"}]}, {"binder": "RibE-mV (riboflavin synthase RibE with C-terminal mVenus) (enzyme, UniProt P16440 1-215) MFTGIIEETGTIESMKKAGHAMALTIKCSKILEDVHLGDSIAVNGICLTVTDFTKNQFTVDVMPETVKATSLNDLTKGSKVNLERAMAANGRFGGHFVSGHVDGTAEITRIEEKSNAVYYDLKMDPSLTKTLVLKGSITVDGVSLTIFGLTEDTVTISLIPHTISETIFSEKTIGSKVNIECDMIGKYMYRFLHKANENKTQQTITKAFLSENGF", "values": [{"measurement": "binding", "setting": "[2]", "result": "no binding"}]}]}
